Results reported in patent US5426186A (priority 1993, dated 1995).
Counter-ions that a name gives are not always drawn. For at least one compound, name, drawing or mass did not settle the structure.

Target: GABAa receptor
Assay: GABAa receptor binding assay, displacement of 3H-RO15-1788 from rat cortical tissue
Settings: 0.5 nM 3H-RO15-1788, rat cortical homogenate, 4° C., nonspecific binding with 1.0 μM diazepam
Protocol: The pharmaceutical utility of compounds of this invention are indicated by the following assay for GABAa receptor activity.
Assays are carried out as described in Thomas and Tallman (J. Bio. Chem. 156: 9838-9842, J. Neurosci. 3:433-440, 1983). Rat cortical tissue is dissected and homogenized in 25 volumes (w/v) of 0.05M Tris HCl buffer (pH 7.4 at 4° C.). The tissue homogenate is centrifuged in the cold (4°) at 20,000×g for 20'. The supernatant is decanted and the pellet is rehomogenized in the same volume of buffer and again centrifuged at 20,000×g. The supernatant is decanted and the pellet is frozen at -20° C. overnight. The pellet is then thawed and rehomogenized in 25 volume (original wt/vol) of buffer and the procedure is carried out twice. The pellet is finally resuspended in 50 volumes (w/vol of 0.05M Tris HCl buffer (pH 7.4 at […]).
Incubations contain 100 μl of tissue homogenate, 100 μl of radioligand 0.5 nM (^3 H-RO15-1788 specific activity 80 Ci/mmol), drug or blocker and buffer to a total volume of 500 μl. […] Filters are washed twice with fresh 0.05M Tris HCl buffer (pH 7.4 at 4° C.) and counted in a liquid scintillation counter 1.0 μM diazepam is added to some tubes to determine nonspecific binding. Data are collected in triplicate determinations, averaged and % inhibition of total specific binding is calculated. […]

SMILES	IC50 [nM]
CN1CCN(CC2CCc3[nH]c(=O)n4cc(-c5ccccc5F)nc4c3C2)CC1 (centres unmarked) [Compound 25, 9-(N-Methylpiperazinylmethyl)-2-(2-fluorophenyl)-7,8,9,10-tetrahydro-imidazo[1,2-c]-quinazolin-5(6H)-one monohydrochloride]	3
O=C(C1CCc2[nH]c(=O)n3cc(-c4ccccc4F)nc3c2C1)N1CCCCC1 (centres unmarked) [Compound 21, 9-(Piperidinecarbonyl)-2-(2-fluorophenyl)-7,8,9,10-tetrahydro-imidazo[1,2-c]-quinazolin-5(6H)-one]	3
